Measurements published in publication PMC12851002.

Test system: thrombin (human)
Assay: pull-down (LASSO polymer; S-2238 activity and SDS-PAGE of supernatant)
Details: aptamer CSL (TBA and HD22) on P20, 90.1 ± 0.5% captured by the set, 98.2 ± 1.2% of captured released by release strand; LASSO pulldown on P20 under native conditions; native protein; folded or branched DNA

Row | Sequence | binding result
1 | AGTCCGTGGTAGGGCAGGTTGGGGTGACTTATTCGCATTCTTAGATTAGAGCCTTATGAGCCGTC [Switchable HD22 thrombin aptamer catcher strand] | binds
2 | GGTTGGTGTGGTTGGTTAGTGATGAGCGGGATTAGAGCCTTATGAGCCGTC [Switchable TBA thrombin aptamer catcher strand] | binds

Construct, isoform or probe ends are uncertain for at least one entry. At least one verdict was read from the data and is not stated in words by the source.
